Reference: PMC4701444 (PLoS ONE, 2016)
Results are given in words; binding and its absence hold for the method and conditions named. Some results given as binding are weak or reduced against the parent protein; the word gives no strength.

Tests used:
[1] = molecular target: PfAMA1 (DI-DII of Plasmodium falciparum Apical Membrane Antigen 1, 3D7, residues 104-438) (Plasmodium falciparum) (UniProt Q7KQK5); assay: ITC; 25°C, MicroCal iTC200; cell: PfAMA1 or ΔDII-PfAMA1 (10 μM); syringe: PfRON2D3-TRX (110 μM), 17 injections of 2.2 μL; 20 mM Hepes pH 7.5, 150 mM NaCl; one binding site model; both purified
[2] = molecular target: PfAMA1 (DI-DII of Plasmodium falciparum Apical Membrane Antigen 1, 3D7, residues 104-438) (Plasmodium falciparum) (UniProt Q7KQK5); assay: fluorescence polarisation; anisotropy kinetics at 20°C; association: 10 nM labeled probe with 50, 100, 200 nM protein; dissociation: 10 nM preformed complex challenged with 2500 or 5000 nM unlabeled PfRON2sp1; global fit to a one-intermediate model; PBS pH 7.4, at least 0.1% BSA; both purified
[3] = molecular target: PfAMA1 (DI-DII of Plasmodium falciparum Apical Membrane Antigen 1, 3D7, residues 104-438) (Plasmodium falciparum) (UniProt Q7KQK5); assay: fluorescence polarisation; anisotropy kinetics at 30°C; association: 10 nM labeled probe with 50, 100, 200 nM protein; dissociation: 10 nM preformed complex challenged with 2500 or 5000 nM unlabeled PfRON2sp1; global fit to a one-intermediate model; PBS pH 7.4, at least 0.1% BSA; both purified
[4] = molecular target: PfAMA1 (DI-DII of Plasmodium falciparum Apical Membrane Antigen 1, 3D7, residues 104-438) (Plasmodium falciparum) (UniProt Q7KQK5); assay: fluorescence polarisation; anisotropy kinetics at 25°C; association: 10 nM labeled probe with 50, 100, 200 nM protein; dissociation: 10 nM preformed complex challenged with 2500 or 5000 nM unlabeled PfRON2sp1; global fit to a one-intermediate model; PBS pH 7.4, at least 0.1% BSA; both purified

Molecule	binding [1]	binding [2]	binding [3]	binding [4]
TRX (thioredoxin alone, negative control) (from UniProt P0AA25 1-109)	no binding	–	–	–
DITQQAKDIGAGPVASCFTTRMSPPQQICLNSVVNTALS (disulfide cyclized at the two cysteine residues) [PfRON2sp1 (39 aa) [2021-2059], unlabeled peptide]	–	binds	binds	binds
